The test system of this assay is P388 leukemia ip, CD2F1 mice, survival T/C. The assay is described as follows: NCI In Vivo Anticancer Drug Screen. Data for tumor model P388 Leukemia (intraperitoneal) in CD2F1 (CDF1) mice. Particulars: T/C endpoint: median survival time, higher T/C = longer survival.
Where [1] appears, read: dose: 240.0 mg/kg/injection, schedule: Q01DX005 (ip), vehicle: saline with Tween-80.

The results in this text go back to PubChem BioAssay AID330 (DTP/NCI, 2004).

The list shows only some results of the screen, not a fair sample: it gathers tests that were run many times, whatever their T/C, doses with no T/C, and many T/C values between a quarter and a half above the control. Further doses and runs are listed elsewhere. T/C is the treated group as % of the vehicle group. Some entries give survivors of the animals treated and no T/C: the source files T/C as zero there, which appears to mark a toxic dose or a test without result, not a measured value. Some doses without a T/C left all or most animals alive at the check, yet need not have been tolerated: survival well below the control is almost never listed, so the zero probably covers shortened survival too. Counts of survivors are from the toxicity check (mostly the fifth day) where no day follows; animals may have died later. Schedule codes are those of the source, taken here to give the interval after Q, in days (D) or hours (H), and the number of doses after X.

Regarding `CC1=CSC2=NCCCCN12`, the survivor count is listed as 6 of 6 (dose: 50.0 mg/kg/injection, schedule: Q01DX009 (ip), vehicle: saline); 6 of 6 (dose: 100.0 mg/kg/injection, schedule: Q01DX009 (ip), vehicle: saline); 0 of 6 (dose: 200.0 mg/kg/injection, schedule: Q01DX009 (ip), vehicle: saline).

Take `CC(C)c1ccc(O)c(O)c1`: the survivor count (dose: 200.0 mg/kg/injection, schedule: Q01DX009 (ip), vehicle: saline with Tween-80) is given as 1 of 6.

On to `CC(NCCN(C)C)C1CC2CCCCN2C1` (configuration not stated), for which the survivor count under setting [1] is 1 of 6.

In the case of `S=c1n(-c2ccc(Cl)cc2)c2/c(=N\Nc3cc(Cl)ccc3Cl)c(n1-c1ccccn1)=NCCN=2`, the survivor count runs as follows: (dose: 120.0 mg/kg/injection, schedule: Q01DX005 (ip), vehicle: saline with Tween-80) 4 of 6; under setting [1], 1 of 6.
